Test results from PMC6640053.
Construct, isoform or probe ends are uncertain for at least one entry. A weaker result is weaker than the reference pair of the same experiment. Where a protein sequence is shown, tags need not be part of it.

Target: T1, Lrp (C-terminal His6 as stated + cloned NdeI/XhoI in pET28a) (Escherichia coli K-12 (strain FW102 genomic DNA)) (UniProt P0ACJ0)
T1 sequence (looked up): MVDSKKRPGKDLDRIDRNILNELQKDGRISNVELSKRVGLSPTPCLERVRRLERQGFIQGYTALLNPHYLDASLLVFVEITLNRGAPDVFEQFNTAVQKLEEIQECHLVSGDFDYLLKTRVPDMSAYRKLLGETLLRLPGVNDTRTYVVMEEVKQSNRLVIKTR
Assay: EMSA
Settings: 10 mM Tris-HCl pH 7.4, 5 mM MgCl2, 250 mM KCl, 2.5 mM CaCl2, 0.5 mM DTT, 2.5% glycerol, 37 C 25 min, L-Arg and/or L-Leu when indicated, recombinant protein, residues 1-164, protein details: His6 (stated C-terminal), label: 5'-32P single-end, probe letters rebuilt from the primers and the genome

Measured: binding result

CGGGATCCGTATTCCTTCCCTACTCCTGTCTGACCCTGAAACATCACTGTTCAGAGTCGCTACCCGTCACGATAGACCGAAATCATGAAGATTCACGGCGCGCAATGCCTGGGTCTACGGTGAGAAGACCGTTGCCTTGTGGCAGCTATCGACATCACGAATGGCGTCTGTCCACGCCATACGTAGATTTCACTAGCACGGTAAACATGGTATTTACATGCATGGTTATGCGCATATAAGAATACTGTTTTTTTTCTTCCTCGAATGTTTTCGCAAAACACCAGGGGATTGTCAAAGCAAAACATCGATTTTTAGTACAACATGCCAGATATTCATTAACAGGGGCGTTTATTCATCATTTAATCGGCTTATAAAGCGAATTCCG (double strand) [lrp control region]
binds more weakly: 7.0 mM L-leucine | 10 mM L-arginine + 10 mM L-leucine | 10 mM L-leucine
